# In paper PMC12328545, “Anticancer potential of 2,2′-bipyridine hydroxamic acid derivatives in head and neck cancer therapy” (Journal of Computer-Aided Molecular Design, 2025):
# How the values were obtained:
# Assay type in all cases: cell-based
# [1] = tested on: SiHa (cervical) cells; test: In-vitro cell viability (MTT) assay, SiHa; conditions: Homo sapiens, 48 h, read-out: Anti-proliferative activity IC50
# Description: (§1) The human cancer cells, namely, SiHa (cervical), MCF7 (breast) and Cal27 (oral) were procured from the ATCC (Manassas, VA, USA). The normal human foreskin fibroblasts were isolated after obtaining the ethical clearance from the institutional ethics committee, Kasturba Medical College, MAHE, Manipal, India. Isolation of fibroblasts was performed using skin epidermis (human dermal fibroblasts (HDF). The cells were cultured in DMEM (Dulbecco's Modified Eagle Medium) with 10% FBS (Fetal Bovine Serum) (Himedia, India). The culture medium was then renewed every 48–72 h. The cells were cultured under optimum conditions by maintaining the cells in incubator (Eppendorf CellXpert® C170, Hamburg, Germany) with 5% carbon dioxide (CO2) and humidified air at 37 °C.
# (§2) The cells were trypsinized using 0.25% trypsin, and their total count was determined using a haemocytometer. Subsequently, 10,000 cells/well for SiHa, Cal27, and MCF7 cells and 5000 cells/well for fibroblast cells were seeded in 96 well plate and incubated for 24 h in CO2 incubator at 37 °C. Then 5 mg/mL of 3[-dimethylthiazol-2-yl]-2,5-diphenyl-tetrazolium bromide (MTT) was added after a 48 h incubation with varying concentrations of the test compounds. […] The optical densities (O.D) of the samples were measured at 570 nm and 640 nm using Tecan Spark (Tecan, Männedorf, Switzerland). […]
# [2] = tested on: MCF7 (breast) cells; test: In-vitro cell viability (MTT) assay, MCF7; conditions: Homo sapiens, 48 h, read-out: Anti-proliferative activity IC50
# Description: as §1, §2
# [3] = tested on: Cal27 (oral) cells; test: In-vitro cell viability (MTT) assay, Cal27; conditions: Homo sapiens, CAL-27, 48 h, read-out: Anti-proliferative activity IC50
# Description: as §1, §2
# [4] = tested on: normal human foreskin fibroblasts; test: In-vitro cell viability (MTT) assay, normal fibroblasts; conditions: Fibroblast, 48 h, read-out: Anti-proliferative activity IC50
# Description: as §1, §2
compound,measurement,setting,value
"O=C(CCCCCCC(=O)Nc1ccccc1)NO [SAHA, suberoylanilide hydroxamic acid]",IC50,[1],25.2 ± 3.69 µM
same,IC50,[2],> 100 µM
same,IC50,[3],10.8 ± 4.8 µM
same,IC50,[4],> 100 µM
